Laboratory results taken from paper PMC4936752.
No constants are given. Whether binding was seen depends on the method and setting. Binding seen in cells or lysates may run through a third protein. Some binding calls cover weakened binding; strength is not graded here. Sequences can lack the tags named with a protein.

By UniProt entry, the sequences of proteins in these tests, tags left out.
UniProt P40763: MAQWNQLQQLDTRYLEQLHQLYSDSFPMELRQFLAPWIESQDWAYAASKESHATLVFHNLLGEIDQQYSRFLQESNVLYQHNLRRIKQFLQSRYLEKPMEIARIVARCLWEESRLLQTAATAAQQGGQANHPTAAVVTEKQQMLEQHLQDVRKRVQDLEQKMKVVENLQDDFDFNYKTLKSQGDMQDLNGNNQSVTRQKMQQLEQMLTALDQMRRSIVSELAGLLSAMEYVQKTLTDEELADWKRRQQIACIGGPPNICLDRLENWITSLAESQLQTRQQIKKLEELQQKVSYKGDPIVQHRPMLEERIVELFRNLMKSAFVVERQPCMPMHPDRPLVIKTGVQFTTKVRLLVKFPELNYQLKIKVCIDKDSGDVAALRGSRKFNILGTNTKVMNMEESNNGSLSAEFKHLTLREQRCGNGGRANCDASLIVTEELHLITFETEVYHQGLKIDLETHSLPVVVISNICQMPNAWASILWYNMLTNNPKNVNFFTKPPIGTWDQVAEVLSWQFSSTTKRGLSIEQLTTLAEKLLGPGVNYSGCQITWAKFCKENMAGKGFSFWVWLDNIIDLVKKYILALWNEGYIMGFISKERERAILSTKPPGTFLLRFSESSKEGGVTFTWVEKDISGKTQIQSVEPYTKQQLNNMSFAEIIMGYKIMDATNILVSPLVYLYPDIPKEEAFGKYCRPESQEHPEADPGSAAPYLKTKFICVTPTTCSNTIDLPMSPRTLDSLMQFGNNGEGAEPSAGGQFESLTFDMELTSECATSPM

Target: T1, mCherry-HA-IE1 (wild-type) fusion protein (human cytomegalovirus (hCMV), strain Towne) (UniProt P03169)
T1 sequence: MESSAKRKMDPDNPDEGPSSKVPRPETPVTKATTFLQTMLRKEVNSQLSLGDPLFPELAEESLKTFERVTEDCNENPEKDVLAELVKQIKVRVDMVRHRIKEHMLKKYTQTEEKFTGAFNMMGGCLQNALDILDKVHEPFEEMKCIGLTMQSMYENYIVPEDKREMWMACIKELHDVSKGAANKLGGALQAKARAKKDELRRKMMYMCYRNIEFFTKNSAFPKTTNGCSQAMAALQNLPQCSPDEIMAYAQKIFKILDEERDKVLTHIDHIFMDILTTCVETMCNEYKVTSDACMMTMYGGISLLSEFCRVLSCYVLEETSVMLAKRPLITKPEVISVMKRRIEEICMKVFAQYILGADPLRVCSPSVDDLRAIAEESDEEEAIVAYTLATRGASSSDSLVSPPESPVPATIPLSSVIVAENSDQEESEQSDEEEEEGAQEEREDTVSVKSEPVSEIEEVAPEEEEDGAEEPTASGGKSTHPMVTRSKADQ
Experiment: co-IP; plasmid-transfected 293T cells, 48 h post transfection, no formaldehyde cross-linking; CoIP lysis buffer (50 mM Tris-HCl pH 8.0, 150 mM NaCl, 10% glycerol, 0.5% Triton X-100); anti-HA magnetic beads 2 h at 4°C; immunoblot for STAT3α and HA-tagged proteins

With “STAT3α, endogenous in 293T cells (from UniProt P40763 1-770)” the binding was “binds”.
